## Results of single-concentration screens

The filed quantity is “Percent Effect” (%). How 0% and 100% were set is not recorded. Most values in the screen are low, and negative values occur. The compounds are a random part of those screened. Two or more numbers in one place are separate tests of the same structure; such repeats can differ widely.

Mtb cholesterol medium: 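Whole-cell growth test on Mycobacterium tuberculosis, read after 4 days in a medium based on cholesterol and the lipid DPPC; the read-out is not stated. Concentration: 50 µM. The record gives no direction; compounds that gave an IC50 in retests scored well above the rest, so higher reads as more growth inhibition. Size under these conditions: about 69,000 compounds, about 370 of them at 50% or above in at least one test.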
Mtb glucose medium: 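Growth of Mycobacterium tuberculosis over 3 days (7H9 medium with glucose and tyloxapol); the read-out is not stated. Tested at 50 µM. Direction is inferred from retests: higher values go with more growth inhibition. About 69,000 compounds were tested under these conditions; 1.1% (about 760) showed 50% or more at least once.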

structure	Mtb cholesterol medium	Mtb glucose medium
CCn1cc(CN(C)c2nc(C)c3ccc(S(C)(=O)=O)cc3n2)cn1	-7.006	17.24
CCC(C)NC(=O)Cn1ncc2c1c(C)nn2CC (stereo not shown)	-32.79	-28.06
CC(c1ncc(C(C)(C)C)o1)N1CCN(Cc2ccc(Cl)s2)CC1 (stereo not shown)	1.331	40.93
CCC(C)C(=O)NCc1cc(Br)c(OC)c(OC)c1 (stereo not shown)	-6.441	-16.93
CCOc1ccccc1OC1CCN(C(=O)c2ccc(=O)[nH]n2)CC1	-20.62	-4.634
COc1cccc(CN(C)Cc2nc3cc(C)ccc3[nH]2)c1O	2.975	1.219 & 12.08
COC(=O)c1cccn1C1CCN(Cc2cccnc2)CC1	-17.99	-28
Cc1cccc(CN2C(=O)CCC23CCN(c2ccccn2)CC3)n1.O=C(O)C(F)(F)F.O=C(O)C(F)(F)F	-1.759 & -8.949	-9.537
Cl.N#Cc1ccc(CNCC2(c3ccccc3)CCOCC2)cc1	2.926	18.3 & 6.636
Cc1cc(N2CCN(C(=O)CCc3scnc3C)CC2)nc(N)n1	-2.47	-10.99 & 4.052
O=C(O)C(F)(F)F.O=C(c1cccnc1)N1CCC2(CC1)CCN(c1ccsc1)C2=O	-10.36	-21.68
Cc1n[nH]c(SCC(=O)NC(c2ccncc2)C(C)C)n1 (stereo not shown)	-3.693	11.88
COCC(=O)N1CCN(Cc2cc(F)cc(Br)c2)CC1	3.533	23.53
O=C(NCCc1cccs1)C1(N2CCCCC2)Cc2ccccc2C1	-2.291	2.695
COc1ccc(NC(=O)c2ccoc2C)c(N2CCN(C(C)=O)CC2)n1	-37.18	-45.71 & -7.628
COCCN(Cc1ccoc1)S(=O)(=O)c1ccc(F)c(Cl)c1	77.9	-6.631
Cc1[nH]c2ccc(Cl)cc2c1CCNc1ncnc2c1CCNC2	17.12	13.21
O=C1CCN(C(=O)NCc2ccccc2Oc2ccccc2)CCN1	-6.998	-24.69
CCS(=O)(=O)N1CCOC2(CCCN(c3ccc(C)nn3)C2)C1.O=C(O)C(F)(F)F (stereo not shown)	-0.5815	0.2385
CCC(C)c1csc(NC(=O)Cc2csc(-c3nnc[nH]3)n2)n1 (stereo not shown)	5.885	-1.255 & 7.719
CCCn1c(C)cc(C(=O)CN2C(=O)c3ccccc3CS2(=O)=O)c1C	20.7	3.709
COCC1CCCN(c2cncc(OCc3ccccc3)n2)C1 (stereo not shown)	18.06	31.41
O=C(O)C(F)(F)F.[H][C@@]12CN(CCOC)CCO[C@]1([H])CN(C(=O)COc1ccc(C)cc1)C2	3.31	-5.457 & 0.2341
CN1CCN(Cc2cccnc2)C2(CCN(c3ncc(F)cn3)C2)C1=O.O=C(O)C(F)(F)F.O=C(O)C(F)(F)F (stereo not shown)	-22.07	-24.98
[H][C@@]12CN(C(C)=O)C[C@]1(C(=O)N(C)C)CCC21CCN(S(=O)(=O)CC)CC1	-6.993	-5.734 & -12.26
[H][C@@]12CS(=O)(=O)C[C@]1([H])N(C(=O)c1ccc(COC)o1)CCN2CC=C(C)C	-10.44	-13.08
[H][C@@]12CN(Cc3cccnc3)C[C@]1([H])C(=O)N(C)C21CCN(C(C)=O)CC1	0.7441	24.09
O=C(O)C(F)(F)F.[H][C@]12C[C@H](C(=O)NC)N(C)[C@@]1([H])CN(S(=O)(=O)c1cccc(F)c1)C2	-6.223	0.1215 & 1.24
[H][C@@]12CNC[C@]1([H])N(C(=O)c1ccccc1)CCO2	-4.82	7.681
N#Cc1c(CN2CCCC2Cn2cncn2)cn2ccccc12 (stereo not shown)	-17.01	10.19 & 1.063
Cc1cc(C)n(CC2CCCCN2CCC(=O)Nc2cc(C)on2)n1 (stereo not shown)	0.823	6.249
CCN(Cc1ccc(O)c(C(=O)O)c1)CC1CCCO1 (stereo not shown)	-25.83	3.783
O=C(NCC(O)c1ccc(F)c(F)c1)c1cccnc1O (stereo not shown)	-8.986	-26.49
CNc1cc(N2CCCC2CNCc2cccnc2C)ncn1 (stereo not shown)	2.848	15.68
Cc1cc(N2CCCC(OC(=O)CCc3cnn(C)c3)C2)nc(C)n1 (stereo not shown)	-2.736	-15.2
O=C(O)c1cccc(C2CCCN(S(=O)(=O)N3CCOCC3)C2)c1 (stereo not shown)	-23.06	11.33 & 0.3484
CC(C)CCOc1ccc(C(C)NC(=O)CSCC(N)=O)cc1 (stereo not shown)	11.84	21.25
COc1ccc2c(c1)OCC(CNC1CCc3ncnn3C1)=C2 (stereo not shown)	-6.581	1.748
Cc1cnn(CCNCc2cc(C)no2)c1	-22.17	-24.07 & -0.0972
COc1cccc(OC)c1CN1CC(O)CN(S(C)(=O)=O)CC1=O (stereo not shown)	-7.824	-18.15
COc1ccccc1[C@@H]1CN(Cc2cc(C(C)(C)C)[nH]n2)C[C@H]1C(=O)O	-2.696	3.623 & 1.39
O=C(O)C(F)(F)F.O=C(O)C(F)(F)F.O=C(O)C(F)(F)F.O=C(O)C(F)(F)F.[H][C@@]12CCCO[C@]1([H])[C@H](N(C)Cc1cccnc1)CN2Cc1nccn1C	0.3239	21.31

4 of the entries, repeated:

- CC(c1ncc(C(C)(C)C)o1)N1CCN(Cc2ccc(Cl)s2)CC1 (stereo not shown) | Mtb cholesterol medium: 1.331%; Mtb glucose medium: 40.93%
- CN1CCN(Cc2cccnc2)C2(CCN(c3ncc(F)cn3)C2)C1=O.O=C(O)C(F)(F)F.O=C(O)C(F)(F)F (stereo not shown) | Mtb cholesterol medium: -22.07%; Mtb glucose medium: -24.98%
- Cc1cc(N2CCN(C(=O)CCc3scnc3C)CC2)nc(N)n1 | Mtb cholesterol medium: -2.47%; Mtb glucose medium: -10.99% & 4.052%
- COc1ccc(NC(=O)c2ccoc2C)c(N2CCN(C(C)=O)CC2)n1 | Mtb cholesterol medium: -37.18%; Mtb glucose medium: -45.71% & -7.628%

The values are deposited in ChEMBL (CHEMBL3988442, “University of Dundee, Small-Polar-MMV Screening Library” (2021)).